Measurements: PubChem BioAssay AID493014 (National Center for Advancing Translational Sciences (NCATS), 2011)
The list shows a part of the results. Shown are side measurements of this screen, not its main read-out; they come without a call. Most of these compounds were active or inconclusive in the main read-out, so they are no random draw. Potencies come from curve fits of mixed quality, noted in brackets.

Assay: qHTS Assay to Find Inhibitors of Chronic Active B-Cell Receptor Signaling
Conditions: ABC-DLBCL IkBa-CBG/CBR reporter, luminescence ratio (green luciferase fused to IkBa over red control in TMD8 lymphoma cells), 4 h
Summary of the method: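 TMD8 human ABC-DLBCL cells with doxycycline-inducible IκBα–green luciferase fusion and unfused red luciferase, in 0.5% FBS medium; compounds up to 46 uM, 4 h at 37C. Green/red luminescence ratio, filter-overlap corrected, fitted to concentration-response curves.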

[1] = measured here: CBR red luminescence, cell number

Row | SMILES | AC50 [1] | AC50 (measured here: IkBa-CBG green luminescence)
1 | O=c1[nH]c(N/N=C/c2ccc(O)cc2)nc2ccccc12 | 16.4 µM [falling, partial curve] | 
2 | Cc1ccc(Nc2nc(N)c([N+](=O)[O-])c(N3CCC(C)CC3)n2)cc1C | 6.51 µM [rising, single point] | 
3 | O=C(O)/C=C/c1ccc2ccccc2n1 | 25.9 µM [falling, partial curve] | 
4 | COc1ccccc1NC(=O)Nc1nc(CC(=O)Nc2cccc(F)c2)cs1 | 11.6 µM [falling, partial curve, poor fit] | 13 µM [rising, partial curve, poor fit]
5 | O=C1NC(Cc2c[nH]c3ccccc23)C(=O)N1Cc1ccc(CN2C(=O)NC(Cc3c[nH]c4ccccc34)C2=O)cc1 (stereo not given) | 35.5 µM [falling, single point] | 
6 | CCOC(=O)N1CCC(NC(=O)c2cc(C(=O)Nc3cccc(OC)c3)ccc2CO)CC1 | 9.2 µM [rising, partial curve, poor fit] | 
7 | C[C@@]12C(=O)Nc3cc(F)c(F)cc3C(=O)N1[C@H]1c3cc(Cl)ccc3OC[C@@H]1[C@@H]2c1ccccc1 | 4.61 µM [falling, full curve] | 
8 | C[C@@H]1CN([C@H](C)CO)C(=O)c2cccc(NC(=O)Nc3ccc(F)cc3)c2O[C@H]1CN(C)C(=O)Nc1ccc(C(F)(F)F)cc1 | 29.1 µM [falling, single point] | 
9 | CCOc1ccc2oc(C(=O)NC(C)(C)CC)c(C)c2c1 | 11.2 µM [rising, partial curve, poor fit] | 
10 | O=C(c1cc(-c2cccs2)on1)N1CCCCC1 | 0.631 µM [rising, partial curve, poor fit] | 
11 | COc1ccc(-c2cc(C(=O)Nc3ccccc3)on2)cc1 | 5.62 µM [falling, partial curve] | 
12 | O=C(Nc1ccc(C2SCCS2)cc1)c1ccccc1 | 7.94 µM [falling, partial curve, poor fit] | 
13 | COc1ccccc1CN(C)C(=O)C(NC(=O)Cc1cccc2ccccc12)C(C)C (stereo not given) | 2.82 µM [falling, full curve] | 
14 | O=C(c1ccc(S(=O)(=O)Nc2ccccc2)cc1)N1CCCCCCC1 | 31.6 µM [rising, partial curve, poor fit] | 
15 | COC(=O)c1sccc1NC(=S)N1CCCCC1C (stereo not given) | 3.26 µM [rising, partial curve, poor fit] | 
16 | COc1ccc(OC)c(NC(=O)N[C@H](Cc2ccccc2)C(=O)NN)c1 | 3.55 µM [falling, single point] | 
17 | C=CCC[C@@H](Cc1ccc(F)cc1)C(=O)OC[C@@H](C)NC(=O)[C@@H](CC=C)CC(=O)N[C@H](CO)Cc1ccccc1 | 20.6 µM [falling, partial curve, poor fit] | 
18 | NC(=O)COC(=O)c1ccc2noc(-c3ccccc3)c2c1 | 22.4 µM [falling, single point] | 
19 | N#CCCN1CCCc2cc(N=Nc3ccc(C(F)(F)F)cc3)ccc21 | 11.2 µM [rising, partial curve, poor fit] | 
20 | CC1CCN(C2=NC(=O)/C(=C/c3ccccc3F)S2)CC1 | 20 µM [falling, partial curve, poor fit] | 

Row | SMILES | AC50 [1] | AC50 (measured here: IkBa-CBG green luminescence)
21 | Cc1noc(C)c1COc1cccc(C(=O)NC(C)(C)C)c1 | 22.4 µM [rising, single point] | 
22 | N#C/C(=C(/O)CSc1ccccc1C(=O)O)c1nc2ccccc2s1 | 4.11 µM [rising, partial curve, poor fit] | 
23 | Cc1cccc2c1OCC/C2=N\NC(=O)COc1ccccc1Cl | 0.282 µM [rising, full curve, poor fit] | 
24 | S=c1[nH]nc(C2CCCCC2)n1/N=C/C=C/c1ccccc1 | 11.2 µM [rising, partial curve] | 
25 | Cc1ccc2cc(CCNC(=O)c3cccs3)c(=O)[nH]c2c1C | 2.31 µM [rising, full curve, poor fit] | 
26 | O=C(CCN1CCc2ccccc2C(c2ccccc2)C1)c1ccc2c(c1)OCCO2 (stereo not given) | 29.1 µM [falling, single point] | 
27 | CCn1nc(C)c(/C=N/NC(=O)c2c[nH]c3ccccc23)c1C | 29.1 µM [falling, single point] | 
28 | CCOc1ccccc1NC(=O)CN1CCC(NC(=O)Nc2ccccc2)CC1 | 2 µM [falling, partial curve, poor fit] | 
29 | CCN1CCN(c2nc(N(C)c3ccccc3)nc(N)c2[N+](=O)[O-])CC1 | 0.708 µM [rising, full curve, poor fit] | 
30 | C=C1CSc2nc(=O)c3c(C)c(C)sc3n21 | 6.51 µM [rising, single point] | 
31 | CCOc1ccccc1NC(=O)C1CCN(C(=O)Cc2ccccc2)CC1 | 8.91 µM [rising, partial curve, poor fit] | 
32 | CCOC(=O)CSC1=NC(=O)/C(=C/c2ccc(Br)cc2)S1 | 35.5 µM [falling, single point] | 
33 | CCCNc1c(NS(=O)(=O)c2c(F)c(F)c(F)c(F)c2F)c(=O)oc2ccccc12 | 3.55 µM [falling, partial curve, poor fit] | 
34 | Cc1ccc(/C(N)=N/OC(=O)CSc2ccccc2)cc1 | 14.1 µM [falling, single point] | 
35 | CC(C)C(=O)N1c2ccccc2NC2=C(C(=O)CCC2)C1c1ccc(N(C)C)cc1 (stereo not given) | 31.6 µM [rising, single point] | 
36 | Cc1ccccc1C(=O)N/N=C/c1cccc2ccccc12 | 7.94 µM [falling, partial curve, poor fit] | 
37 | CC(C)Cn1c([N+](=O)[O-])nc2c1c(=O)[nH]c(=O)n2C | 3.16 µM [falling, partial curve, poor fit] | 
38 | CCN(Cc1ccccc1)S(=O)(=O)c1ccc(C(=O)N(CCCN(C)C)c2nc3cc4c(cc3s2)OCO4)cc1 | 35.5 µM [falling, single point] | 
39 | CCc1ccc2c(c1)c1nc(C)sc1n2CC | 8.91 µM [rising, partial curve, poor fit] | 

Some of these compounds in order of heavy-atom count, descending:
Row | SMILES | AC50 [1] | AC50 (measured here: IkBa-CBG green luminescence)
38 | CCN(Cc1ccccc1)S(=O)(=O)c1ccc(C(=O)N(CCCN(C)C)c2nc3cc4c(cc3s2)OCO4)cc1 | 35.5 µM [falling, single point] | 
33 | CCCNc1c(NS(=O)(=O)c2c(F)c(F)c(F)c(F)c2F)c(=O)oc2ccccc12 | 3.55 µM [falling, partial curve, poor fit] | 
28 | CCOc1ccccc1NC(=O)CN1CCC(NC(=O)Nc2ccccc2)CC1 | 2 µM [falling, partial curve, poor fit] | 
31 | CCOc1ccccc1NC(=O)C1CCN(C(=O)Cc2ccccc2)CC1 | 8.91 µM [rising, partial curve, poor fit] | 
29 | CCN1CCN(c2nc(N(C)c3ccccc3)nc(N)c2[N+](=O)[O-])CC1 | 0.708 µM [rising, full curve, poor fit] | 
27 | CCn1nc(C)c(/C=N/NC(=O)c2c[nH]c3ccccc23)c1C | 29.1 µM [falling, single point] | 
24 | S=c1[nH]nc(C2CCCCC2)n1/N=C/C=C/c1ccccc1 | 11.2 µM [rising, partial curve] | 
34 | Cc1ccc(/C(N)=N/OC(=O)CSc2ccccc2)cc1 | 14.1 µM [falling, single point] | 
37 | CC(C)Cn1c([N+](=O)[O-])nc2c1c(=O)[nH]c(=O)n2C | 3.16 µM [falling, partial curve, poor fit] | 
39 | CCc1ccc2c(c1)c1nc(C)sc1n2CC | 8.91 µM [rising, partial curve, poor fit] | 
30 | C=C1CSc2nc(=O)c3c(C)c(C)sc3n21 | 6.51 µM [rising, single point] | 
